# Measurements taken from the supplement of paper PMC12823440, “Inhibitors supercharge kinase turnover through native proteolytic circuits” (Nature, 2025).
# Protein sequences, listed by entry. Tags and fused reporters are not part of them. Lines headed by an entry give the natural chain unless they say otherwise; changes in a name come on top.
# UniProt Q15208: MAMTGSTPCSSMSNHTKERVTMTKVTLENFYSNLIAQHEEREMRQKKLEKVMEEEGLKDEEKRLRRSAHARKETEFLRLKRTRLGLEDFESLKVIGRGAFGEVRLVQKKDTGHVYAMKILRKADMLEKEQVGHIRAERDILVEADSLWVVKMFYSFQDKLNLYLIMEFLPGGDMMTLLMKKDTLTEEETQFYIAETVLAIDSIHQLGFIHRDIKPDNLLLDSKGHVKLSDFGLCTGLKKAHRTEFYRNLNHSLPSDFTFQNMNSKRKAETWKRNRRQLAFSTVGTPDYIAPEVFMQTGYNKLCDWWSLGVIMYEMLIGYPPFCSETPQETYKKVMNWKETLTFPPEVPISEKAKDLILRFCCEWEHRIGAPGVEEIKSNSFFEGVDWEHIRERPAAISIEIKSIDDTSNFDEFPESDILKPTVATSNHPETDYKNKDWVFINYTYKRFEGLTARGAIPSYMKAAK
# UniProt P42680: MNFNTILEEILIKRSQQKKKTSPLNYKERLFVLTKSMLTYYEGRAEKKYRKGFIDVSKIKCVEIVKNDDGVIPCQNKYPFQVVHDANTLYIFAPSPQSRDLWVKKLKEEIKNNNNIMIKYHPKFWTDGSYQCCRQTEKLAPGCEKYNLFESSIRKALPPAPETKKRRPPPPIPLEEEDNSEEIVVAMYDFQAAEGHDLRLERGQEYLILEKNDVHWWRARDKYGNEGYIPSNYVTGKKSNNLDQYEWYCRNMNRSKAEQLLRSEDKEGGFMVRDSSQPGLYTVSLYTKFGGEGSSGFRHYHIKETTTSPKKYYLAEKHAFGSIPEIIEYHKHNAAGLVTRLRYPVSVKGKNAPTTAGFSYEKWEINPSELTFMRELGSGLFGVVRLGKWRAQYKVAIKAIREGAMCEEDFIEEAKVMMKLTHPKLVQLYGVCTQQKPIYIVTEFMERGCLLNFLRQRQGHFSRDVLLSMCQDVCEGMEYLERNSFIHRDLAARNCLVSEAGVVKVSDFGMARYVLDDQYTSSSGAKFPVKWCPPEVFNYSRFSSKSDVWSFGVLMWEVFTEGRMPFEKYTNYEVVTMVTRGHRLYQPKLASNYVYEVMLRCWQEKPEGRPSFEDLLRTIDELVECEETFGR
# UniProt Q6PHR2: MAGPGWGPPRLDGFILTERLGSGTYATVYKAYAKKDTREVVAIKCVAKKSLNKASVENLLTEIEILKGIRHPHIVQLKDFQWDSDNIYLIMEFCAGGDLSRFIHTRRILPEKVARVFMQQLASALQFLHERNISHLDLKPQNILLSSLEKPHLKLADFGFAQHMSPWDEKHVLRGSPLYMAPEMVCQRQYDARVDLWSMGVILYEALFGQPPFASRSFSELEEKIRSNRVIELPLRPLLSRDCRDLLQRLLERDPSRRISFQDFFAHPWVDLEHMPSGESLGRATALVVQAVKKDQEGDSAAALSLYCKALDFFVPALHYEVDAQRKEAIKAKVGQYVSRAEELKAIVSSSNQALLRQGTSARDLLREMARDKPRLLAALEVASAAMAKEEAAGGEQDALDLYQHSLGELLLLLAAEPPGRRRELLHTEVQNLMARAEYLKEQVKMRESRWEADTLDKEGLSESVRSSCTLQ
# UniProt P00519, whole entry: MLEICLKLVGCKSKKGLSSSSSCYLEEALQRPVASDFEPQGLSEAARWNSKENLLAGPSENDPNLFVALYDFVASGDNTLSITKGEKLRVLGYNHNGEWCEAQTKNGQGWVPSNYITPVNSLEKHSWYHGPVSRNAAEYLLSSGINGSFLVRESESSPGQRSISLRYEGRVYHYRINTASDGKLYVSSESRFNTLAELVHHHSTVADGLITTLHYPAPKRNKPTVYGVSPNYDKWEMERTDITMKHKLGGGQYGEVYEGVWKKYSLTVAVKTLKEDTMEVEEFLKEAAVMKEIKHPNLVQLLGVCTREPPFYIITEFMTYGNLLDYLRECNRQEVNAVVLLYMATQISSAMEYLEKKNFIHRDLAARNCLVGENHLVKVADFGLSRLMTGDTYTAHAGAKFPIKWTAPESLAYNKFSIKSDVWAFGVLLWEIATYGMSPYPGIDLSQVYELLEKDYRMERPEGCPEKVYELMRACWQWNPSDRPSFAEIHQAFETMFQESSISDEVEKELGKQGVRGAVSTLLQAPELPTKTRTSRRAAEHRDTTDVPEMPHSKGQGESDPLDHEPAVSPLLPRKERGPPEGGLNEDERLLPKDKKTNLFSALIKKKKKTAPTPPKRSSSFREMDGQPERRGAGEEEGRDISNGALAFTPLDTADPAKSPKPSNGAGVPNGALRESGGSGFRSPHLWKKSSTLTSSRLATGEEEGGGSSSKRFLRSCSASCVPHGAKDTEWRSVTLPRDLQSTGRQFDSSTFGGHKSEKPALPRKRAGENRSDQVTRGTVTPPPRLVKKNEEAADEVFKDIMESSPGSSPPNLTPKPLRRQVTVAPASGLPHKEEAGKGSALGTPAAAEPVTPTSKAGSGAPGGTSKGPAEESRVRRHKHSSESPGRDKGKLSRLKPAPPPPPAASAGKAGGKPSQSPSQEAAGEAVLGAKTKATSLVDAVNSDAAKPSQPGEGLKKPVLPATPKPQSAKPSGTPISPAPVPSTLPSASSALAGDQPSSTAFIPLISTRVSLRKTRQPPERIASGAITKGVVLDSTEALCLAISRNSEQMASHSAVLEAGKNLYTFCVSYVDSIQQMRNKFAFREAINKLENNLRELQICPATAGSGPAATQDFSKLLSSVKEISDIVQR
# UniProt P31749: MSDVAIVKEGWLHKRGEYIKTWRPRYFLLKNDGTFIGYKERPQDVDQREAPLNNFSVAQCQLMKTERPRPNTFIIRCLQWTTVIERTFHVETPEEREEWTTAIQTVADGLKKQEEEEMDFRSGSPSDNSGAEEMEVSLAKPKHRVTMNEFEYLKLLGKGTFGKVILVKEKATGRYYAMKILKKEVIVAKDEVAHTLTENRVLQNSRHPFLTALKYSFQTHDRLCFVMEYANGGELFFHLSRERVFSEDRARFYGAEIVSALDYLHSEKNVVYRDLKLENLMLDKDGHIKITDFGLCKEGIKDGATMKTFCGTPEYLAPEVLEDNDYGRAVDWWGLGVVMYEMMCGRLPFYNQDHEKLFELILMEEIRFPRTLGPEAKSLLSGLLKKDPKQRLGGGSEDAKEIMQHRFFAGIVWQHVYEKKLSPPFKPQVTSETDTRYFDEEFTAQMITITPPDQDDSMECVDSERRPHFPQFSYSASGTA
# UniProt Q9UM73: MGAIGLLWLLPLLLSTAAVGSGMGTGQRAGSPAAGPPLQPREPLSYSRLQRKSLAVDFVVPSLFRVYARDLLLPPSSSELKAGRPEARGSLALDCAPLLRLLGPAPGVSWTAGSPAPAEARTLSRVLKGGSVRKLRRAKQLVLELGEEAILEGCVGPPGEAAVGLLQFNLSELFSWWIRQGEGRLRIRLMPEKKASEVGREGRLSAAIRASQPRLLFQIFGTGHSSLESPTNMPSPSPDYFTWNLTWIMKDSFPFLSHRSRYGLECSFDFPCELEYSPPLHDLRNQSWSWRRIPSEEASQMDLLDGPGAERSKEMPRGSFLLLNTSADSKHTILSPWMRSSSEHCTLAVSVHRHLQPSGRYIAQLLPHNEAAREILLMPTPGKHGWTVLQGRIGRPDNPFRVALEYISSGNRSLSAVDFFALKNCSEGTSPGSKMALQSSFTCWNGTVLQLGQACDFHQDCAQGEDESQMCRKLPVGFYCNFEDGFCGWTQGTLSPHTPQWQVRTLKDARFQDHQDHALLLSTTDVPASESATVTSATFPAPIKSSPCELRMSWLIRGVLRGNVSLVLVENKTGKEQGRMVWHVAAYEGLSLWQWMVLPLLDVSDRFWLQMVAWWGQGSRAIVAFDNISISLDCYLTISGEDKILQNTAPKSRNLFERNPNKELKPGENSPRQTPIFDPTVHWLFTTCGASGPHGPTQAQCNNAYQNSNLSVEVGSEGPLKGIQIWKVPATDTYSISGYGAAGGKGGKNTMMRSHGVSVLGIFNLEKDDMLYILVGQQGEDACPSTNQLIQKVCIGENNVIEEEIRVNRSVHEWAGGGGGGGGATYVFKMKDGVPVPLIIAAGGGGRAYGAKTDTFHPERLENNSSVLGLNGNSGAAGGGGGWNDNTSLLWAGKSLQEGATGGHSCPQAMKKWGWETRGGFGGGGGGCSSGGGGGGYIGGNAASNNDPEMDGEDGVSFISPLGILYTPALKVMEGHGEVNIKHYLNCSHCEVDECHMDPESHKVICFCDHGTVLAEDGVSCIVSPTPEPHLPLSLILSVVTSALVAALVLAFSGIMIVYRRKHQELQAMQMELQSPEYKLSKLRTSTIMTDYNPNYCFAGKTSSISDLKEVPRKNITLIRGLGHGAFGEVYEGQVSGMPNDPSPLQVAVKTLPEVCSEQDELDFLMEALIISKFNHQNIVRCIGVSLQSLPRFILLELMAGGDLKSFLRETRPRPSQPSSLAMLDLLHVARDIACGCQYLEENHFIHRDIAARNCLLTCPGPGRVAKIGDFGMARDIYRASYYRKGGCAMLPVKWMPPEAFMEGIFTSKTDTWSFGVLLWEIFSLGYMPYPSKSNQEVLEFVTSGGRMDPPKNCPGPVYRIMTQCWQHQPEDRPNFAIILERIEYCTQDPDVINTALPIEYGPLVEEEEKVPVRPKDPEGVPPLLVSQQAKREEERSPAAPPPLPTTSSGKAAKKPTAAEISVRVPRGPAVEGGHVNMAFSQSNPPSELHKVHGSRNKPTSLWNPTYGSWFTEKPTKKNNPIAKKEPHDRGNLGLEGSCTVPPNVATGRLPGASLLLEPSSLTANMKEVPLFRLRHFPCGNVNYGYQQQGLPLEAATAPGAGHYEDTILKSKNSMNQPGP
# UniProt P10398: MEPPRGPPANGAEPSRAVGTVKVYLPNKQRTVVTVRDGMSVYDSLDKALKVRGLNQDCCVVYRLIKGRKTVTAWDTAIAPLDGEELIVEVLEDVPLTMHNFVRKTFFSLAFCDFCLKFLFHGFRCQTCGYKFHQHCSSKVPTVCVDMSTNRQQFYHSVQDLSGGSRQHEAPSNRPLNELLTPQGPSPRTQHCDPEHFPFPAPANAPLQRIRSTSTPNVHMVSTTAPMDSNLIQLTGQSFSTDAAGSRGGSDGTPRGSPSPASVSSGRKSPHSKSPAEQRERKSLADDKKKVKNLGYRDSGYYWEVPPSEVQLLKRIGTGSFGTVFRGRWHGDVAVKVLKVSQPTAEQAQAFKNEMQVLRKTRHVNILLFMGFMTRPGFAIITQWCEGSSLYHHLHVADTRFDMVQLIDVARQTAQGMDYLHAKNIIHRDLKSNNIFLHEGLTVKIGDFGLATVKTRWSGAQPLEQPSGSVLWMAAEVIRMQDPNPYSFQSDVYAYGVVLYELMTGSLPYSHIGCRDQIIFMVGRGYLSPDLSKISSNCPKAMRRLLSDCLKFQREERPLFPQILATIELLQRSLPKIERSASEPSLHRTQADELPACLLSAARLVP
# UniProt Q96GD4, whole entry: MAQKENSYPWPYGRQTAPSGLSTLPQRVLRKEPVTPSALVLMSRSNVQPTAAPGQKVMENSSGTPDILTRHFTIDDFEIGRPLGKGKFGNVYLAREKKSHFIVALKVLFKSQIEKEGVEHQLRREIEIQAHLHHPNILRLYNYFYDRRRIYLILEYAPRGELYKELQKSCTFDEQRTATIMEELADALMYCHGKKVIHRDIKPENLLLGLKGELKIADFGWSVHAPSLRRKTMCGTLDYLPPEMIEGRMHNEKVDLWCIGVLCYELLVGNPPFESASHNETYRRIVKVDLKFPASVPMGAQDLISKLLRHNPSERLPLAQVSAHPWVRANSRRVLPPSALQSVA
# UniProt Q9UQB9: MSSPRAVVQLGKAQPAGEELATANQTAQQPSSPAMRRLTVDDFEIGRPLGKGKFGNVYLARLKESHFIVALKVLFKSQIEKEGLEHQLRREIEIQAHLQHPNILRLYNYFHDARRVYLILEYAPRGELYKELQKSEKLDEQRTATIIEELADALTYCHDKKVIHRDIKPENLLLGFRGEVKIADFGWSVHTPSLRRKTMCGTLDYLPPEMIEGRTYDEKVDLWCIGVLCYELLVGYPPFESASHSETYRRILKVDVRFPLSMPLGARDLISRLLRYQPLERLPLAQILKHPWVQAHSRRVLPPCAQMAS
# UniProt P51451: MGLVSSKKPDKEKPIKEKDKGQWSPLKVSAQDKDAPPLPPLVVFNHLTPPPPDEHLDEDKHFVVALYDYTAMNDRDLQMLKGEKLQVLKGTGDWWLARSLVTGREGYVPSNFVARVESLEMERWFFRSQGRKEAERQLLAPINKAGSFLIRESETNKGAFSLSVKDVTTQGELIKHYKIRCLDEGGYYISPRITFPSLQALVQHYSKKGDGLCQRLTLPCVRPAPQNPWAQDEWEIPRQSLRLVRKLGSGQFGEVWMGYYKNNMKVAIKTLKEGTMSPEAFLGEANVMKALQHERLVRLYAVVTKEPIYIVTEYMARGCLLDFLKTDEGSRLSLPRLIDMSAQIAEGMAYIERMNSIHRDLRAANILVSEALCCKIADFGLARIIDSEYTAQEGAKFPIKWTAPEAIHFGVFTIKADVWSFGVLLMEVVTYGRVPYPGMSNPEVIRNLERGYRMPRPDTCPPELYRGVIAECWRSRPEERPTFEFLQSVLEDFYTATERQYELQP
# The list shows a part of the results. Hit calls seldom repeat between salt and free forms of one compound.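 Kinases, fused to nanoluciferase, were expressed in K562 cells; luminescence was measured every 4 h from 2 to 18 h as percent of control (DMSO = 100%, positive control = 0%). A time point is decreased if signal falls significantly (2 sigma). Hits were called by the authors by a rule that is not shown; the count of time points alone does not decide it.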
# What was measured:
# Settings in all cases: K562; 2-18 h
# [1] = target: STK38 (UniProt Q15208); experiment: kinase-Nluc reporter destabilization hit call (1 = scored as downregulated) (binary); higher = compound decreases kinase abundance
# [2] = target: SYK (UniProt P43405); experiment: as above
# [3] = target: TEC (UniProt P42680); experiment: as above
# [4] = target: TYK2 (UniProt P29597); experiment: as above
# [5] = target: ULK3 (UniProt Q6PHR2); experiment: as above
# [6] = target: YES1 (UniProt P07947); experiment: as above
# [7] = target: ZAK (UniProt Q9NYL2); experiment: as above
# [8] = target: ZAP70 (UniProt P43403); experiment: as above
# [9] = target: ABL1 (UniProt P00519); experiment: number of time points (of 5) at which kinase-Nluc abundance scored as decreased, DMSO-normalised (count); higher = more persistent destabilization
# [10] = target: AKT1 (UniProt P31749); experiment: as above
# [11] = target: ALK (UniProt Q9UM73); experiment: as above
# [12] = target: ARAF (UniProt P10398); experiment: as above
# [13] = target: AURKA (UniProt O14965); experiment: as above
# [14] = target: AURKB (UniProt Q96GD4); experiment: as above
# [15] = target: AURKC (UniProt Q9UQB9); experiment: as above
# [16] = target: BLK (UniProt P51451); experiment: as above
# [17] = target: BMX (UniProt P51813); experiment: as above
# [18] = target: BRAF (UniProt P15056); experiment: as above
# [19] = tested on: BRAF_V600E; experiment: as above
# [20] = target: BTK (UniProt Q06187); experiment: as above
SMILES,kinase-Nluc reporter destabilization hit call [1],kinase-Nluc reporter destabilization hit call [2],kinase-Nluc reporter destabilization hit call [3],kinase-Nluc reporter destabilization hit call [4],kinase-Nluc reporter destabilization hit call [5],kinase-Nluc reporter destabilization hit call [6],kinase-Nluc reporter destabilization hit call [7],kinase-Nluc reporter destabilization hit call [8],number of time points [9],number of time points [10],number of time points [11],number of time points [12],number of time points [13],number of time points [14],number of time points [15],number of time points [16],number of time points [17],number of time points [18],number of time points [19],number of time points [20]
C=CS(=O)(=O)c1ccc(Nc2nc(OCC3CCCCC3)c3[nH]cnc3n2)cc1 (2.5 µM),inactive: 0,inactive: 0,inactive: 0,inactive: 0,inactive: 0,inactive: 0,inactive: 0,inactive: 0,0,0,0,0,0,0,0,0,0,0,0,0
COc1ccc2c(c1)c(C1=C(c3c[nH]c4ccccc34)C(=O)NC1=O)cn2CCCN(C)C (10 µM),inactive: 0,inactive: 0,inactive: 0,inactive: 0,inactive: 0,inactive: 0,inactive: 0,inactive: 0,0,0,0,0,0,0,0,0,0,0,0,0
CCOC(=O)c1c2c3c(cccc3[nH]c1=O)C(=O)c1ccccc1-2 (10 µM),inactive: 0,inactive: 0,inactive: 0,inactive: 0,inactive: 0,inactive: 0,inactive: 0,inactive: 0,0,0,0,0,0,0,0,0,0,0,0,0
N#C/C(=C(/N)Sc1ccc(N)cc1)c1ccccc1C(F)(F)F (10 µM),inactive: 0,inactive: 0,inactive: 0,inactive: 0,inactive: 0,inactive: 0,inactive: 0,inactive: 0,0,0,0,0,0,0,0,0,0,0,0,0
COc1nc(-c2ccnc(NC(=O)C3CC3)c2)sc1C(N)=O [GSK-3β inhibitor 2] (10 µM),inactive: 0,inactive: 0,inactive: 0,inactive: 0,inactive: 0,inactive: 0,inactive: 0,inactive: 0,0,0,0,0,0,0,0,0,3,0,0,0
O=C(Nc1ccc(Cl)cc1)C1CCCN(C(=O)c2cccc(-c3ccco3)c2)C1 (stereo not given) (2.5 µM),inactive: 0,inactive: 0,inactive: 0,inactive: 0,inactive: 0,inactive: 0,inactive: 0,inactive: 0,0,0,0,0,0,0,0,0,0,0,0,0
COC(=O)[C@@]1(C)CC[C@]2(C(=O)O)CC[C@]3(C)C(=CC[C@@H]4[C@@]5(C)C[C@H](O)[C@H](O[C@@H]6OC[C@@H](O[C@@H]7O[C@H](CO)[C@@H](O)[C@H](O)[C@H]7O)[C@H](O)[C@H]6O)[C@@](C)(CO)[C@@H]5CC[C@]43C)[C@@H]2C1 [Esculentoside A] (10 µM),inactive: 0,inactive: 0,inactive: 0,inactive: 0,inactive: 0,inactive: 0,inactive: 0,inactive: 0,0,0,0,0,0,0,0,0,0,0,0,0
C[C@@H]1COCCN1c1cc(C2([S@](C)(=N)=O)CC2)nc(-c2cc[nH]c3nccc2-3)n1 [Ceralasertib] (2.5 µM),inactive: 0,inactive: 0,inactive: 0,inactive: 0,inactive: 0,inactive: 0,inactive: 0,inactive: 0,0,0,0,0,0,0,0,0,0,0,0,0
NC(=O)c1ccc(-c2cnn3ccc(NCc4cccnc4)nc23)cc1 (2.5 µM),inactive: 0,inactive: 0,inactive: 0,inactive: 0,inactive: 0,inactive: 0,inactive: 0,inactive: 0,0,0,0,0,0,0,0,0,0,0,0,0
COc1ccc2c(=O)c(-c3ccccc3)coc2c1 [7-Methoxyisoflavone] (10 µM),inactive: 0,inactive: 0,inactive: 0,inactive: 0,inactive: 0,inactive: 0,inactive: 0,inactive: 0,3,0,0,0,4,4,0,0,0,0,2,0
Cc1cc2cc(Oc3ccnc(Nc4cccc(CS(=O)(=O)NCCN(C)C)c4)n3)ccc2[nH]1 [Sulfatinib] (10 µM),inactive: 0,inactive: 0,inactive: 0,inactive: 0,inactive: 0,inactive: 0,inactive: 0,inactive: 0,4,0,0,0,0,0,0,0,1,0,2,0
